Results published in US20250353906A1.
Results are given in words; binding and its absence hold for the method and conditions named. Some binding calls cover weakened binding; strength is not graded here. Tags and fused reporters may be left off the sequences shown.

Columns and labels:
[1] = molecular target: T1, recombinant His-tagged human Notch2 NRR domain, expressed and purified in house (human) (UniProt Q04721); experiment: BLI, antibody on anti-human IgG Fc biosensors, Notch2 NRR protein at 1000 nM to 31 nM
T1 sequence (looked up): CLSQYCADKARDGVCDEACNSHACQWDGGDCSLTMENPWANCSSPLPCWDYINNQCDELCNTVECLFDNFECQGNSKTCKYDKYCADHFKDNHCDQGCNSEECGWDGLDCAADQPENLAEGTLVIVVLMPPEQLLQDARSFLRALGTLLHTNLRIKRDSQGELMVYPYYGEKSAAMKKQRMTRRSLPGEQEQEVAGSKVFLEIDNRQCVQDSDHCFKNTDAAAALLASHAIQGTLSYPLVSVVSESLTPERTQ

[2] = molecular target: T2, recombinant His-tagged murine Notch2 NRR domain, expressed and purified in house (mouse) (UniProt O35516); experiment: as above
T2 sequence (looked up): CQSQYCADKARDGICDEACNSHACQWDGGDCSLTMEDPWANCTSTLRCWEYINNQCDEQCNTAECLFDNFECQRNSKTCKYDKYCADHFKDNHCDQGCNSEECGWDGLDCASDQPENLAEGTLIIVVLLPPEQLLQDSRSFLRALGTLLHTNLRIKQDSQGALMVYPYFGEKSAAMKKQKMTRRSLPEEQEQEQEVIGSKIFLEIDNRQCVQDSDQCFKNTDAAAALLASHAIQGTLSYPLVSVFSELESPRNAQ

[3] = molecular target: T1, recombinant His-tagged human Notch2 NRR domain, expressed and purified in house (human); experiment: ELISA, antigen coated at 1 µg/mL, antibody serially diluted from 666 nM
[4] = molecular target: T2, recombinant His-tagged murine Notch2 NRR domain, expressed and purified in house (mouse); experiment: as above
[5] = molecular target: T1, recombinant His-tagged human Notch2 NRR domain, expressed and purified in house (human); experiment: ELISA, antigen coated at 1 µg/mL, antibody serially diluted from 200 nM
[6] = molecular target: T2, recombinant His-tagged murine Notch2 NRR domain, expressed and purified in house (mouse); experiment: as above

Measured: binding

B1: PRO034 (antibody, human IgG1, kappa, L234A L235A, V domains shown)
VH: EVQLVESGGGLVQPGGSLRLSCAASGYSFTSYGMSWVRQAPGKGLEWVSYIYPYSGATYYADSVKGRFTISADTSKNTAYLQMNSLRAEDTAVYYCARHSGYYRISSAMDVWGQGTLVTVSS
VL: DIQMTQSPSSLSASVGDRVTITCRASQSISSYLAWYQQKPGKAPKLLIYGASSRASGVPSRFSGSGSGTDFTLTISSLQPEDFATYYCQQYYSSPLTFGQGTKVEIKR
binds: [1] | [2] | [3] | [4]

B2: PRO035 (antibody, human IgG1, kappa, L234A L235A, V domains shown)
VH: EVQLVESGGGLVQPGGSLRLSCAASGYTFSSYGMSWVRQAPGKGLEWVSYIYPYSGATYYADSVKGRFTISADTSKNTAYLQMNSLRAEDTAVYYCARHSGYYRISSAMDVWGQGTLVTVSS
VL: DIQMTQSPSSLSASVGDRVTITCRASQSNRRFLAWYQQKPGKAPKLLIYGASSRASGVPSRFSGSGSGTDFTLTISSLQPEDFATYYCQQYYISPLTFGQGTKVEIKR
binds: [5] | [6] | [1] | [2]

B3: PRO036 (antibody, human IgG1, kappa, L234A L235A, V domains shown)
VH: EVQLVESGGGLVQPGGSLRLSCAASGYTFSSYGMSWVRQAPGKGLEWVSYIYPYSGATYYADSVKGRFTISADTSKNTAYLQMNSLRAEDTAVYYCARHSGYYRISSAMDVWGQGTLVTVSS
VL: DIQMTQSPSSLSASVGDRVTITCRASQSVRSFLAWYQQKPGKAPKLLIYRASIRASGVPSRFSGSGSGTDFTLTISSLQPEDFATYYCQQYYISPWTFGQGTKVEIKR
binds: [1] | [2] | [3] | [4]

B4: PRO037 (antibody, human IgG1, kappa, L234A L235A, V domains shown)
VH: EVQLVESGGGLVQPGGSLRLSCAASGYTFSSYGMSWVRQAPGKGLEWVSYIYPYSGATYYADSVKGRFTISADTSKNTAYLQMNSLRAEDTAVYYCARHSGYYRISSAMDVWGQGTLVTVSS
VL: DIQMTQSPSSLSASVGDRVTITCRASQSNRRFLAWYQQKPGKAPKLLIYGASSRASGVPSRFSGSGSGTDFTLTISSLQPEDFATYYCQQYYISPLTFGQGTKVEIKR
binds: [5] | [6] | [1] | [2]
